Drawing on publication PMC3404970, this text covers binding for two substances.

The chains behind the UniProt entries cited, without tags or fusion partners. Where a name states a change or a piece, a line headed by the entry shows the natural chain unless it says otherwise.
UniProt P11309: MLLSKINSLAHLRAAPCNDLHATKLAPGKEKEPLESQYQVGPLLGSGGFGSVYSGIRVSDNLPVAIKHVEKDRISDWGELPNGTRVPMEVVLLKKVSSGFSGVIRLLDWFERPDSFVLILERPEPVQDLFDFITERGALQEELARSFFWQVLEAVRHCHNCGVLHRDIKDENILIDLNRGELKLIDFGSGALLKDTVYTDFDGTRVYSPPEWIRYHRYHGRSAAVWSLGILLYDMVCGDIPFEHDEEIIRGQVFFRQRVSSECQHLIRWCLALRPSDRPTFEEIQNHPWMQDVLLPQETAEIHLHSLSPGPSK

Assay [1] concerns the target T1, endogenous VDR of human HaCaT keratinocytes (human (endogenous in HaCaT)) (UniProt P11473).
T1 sequence: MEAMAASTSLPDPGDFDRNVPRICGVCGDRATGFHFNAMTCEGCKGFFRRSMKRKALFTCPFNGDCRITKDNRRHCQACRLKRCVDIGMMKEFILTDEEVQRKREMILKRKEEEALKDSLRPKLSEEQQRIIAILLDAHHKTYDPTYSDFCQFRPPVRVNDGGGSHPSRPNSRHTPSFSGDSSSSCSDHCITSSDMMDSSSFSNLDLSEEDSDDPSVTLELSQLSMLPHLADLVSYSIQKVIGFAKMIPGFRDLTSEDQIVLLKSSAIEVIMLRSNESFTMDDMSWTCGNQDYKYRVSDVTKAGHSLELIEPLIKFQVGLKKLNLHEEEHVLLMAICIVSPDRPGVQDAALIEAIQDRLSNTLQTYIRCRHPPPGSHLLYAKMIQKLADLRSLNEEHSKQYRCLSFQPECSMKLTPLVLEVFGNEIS
The experiment in a line: pull-down; the same DRIP-2 peptide pull-down from HaCaT lysate, read for endogenous PIM-1 found with endogenous VDR in the captured complex (western blot). On the technique in general: In western blotting, separated proteins are transferred to a membrane and probed.

In assay [2] the target is T2, DNA-binding domain of human VDR (DBD, AA 16-125), GAL4 DNA-binding domain fusion (human) (UniProt P11473).
T2 sequence: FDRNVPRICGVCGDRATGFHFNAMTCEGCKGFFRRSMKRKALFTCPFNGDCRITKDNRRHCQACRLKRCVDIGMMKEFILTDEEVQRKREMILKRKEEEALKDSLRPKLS
The experiment in a line: two-hybrid; pairwise co-transformation of pBD-Gate2 baits (VDR, DBD, LBD) and pAD-Gate2 preys (PIM-1) into yeast AH109; growth on SD/-leu-trp-ade-his after 4 days at 28 C; empty vectors as negative controls.

Assay [3] deals with T3, full-length human vitamin D receptor (VDR), GAL4 DNA-binding domain fusion (VDR-pBD-Gate2 bait) (human) (UniProt P11473).
T3 sequence: T1 sequence
The description is as above.

For assay [4], the target named is T4, ligand-binding domain of human VDR (LBD, amino acids 111-427), GAL4 DNA-binding domain fusion (human) (UniProt P11473).
T4 sequence: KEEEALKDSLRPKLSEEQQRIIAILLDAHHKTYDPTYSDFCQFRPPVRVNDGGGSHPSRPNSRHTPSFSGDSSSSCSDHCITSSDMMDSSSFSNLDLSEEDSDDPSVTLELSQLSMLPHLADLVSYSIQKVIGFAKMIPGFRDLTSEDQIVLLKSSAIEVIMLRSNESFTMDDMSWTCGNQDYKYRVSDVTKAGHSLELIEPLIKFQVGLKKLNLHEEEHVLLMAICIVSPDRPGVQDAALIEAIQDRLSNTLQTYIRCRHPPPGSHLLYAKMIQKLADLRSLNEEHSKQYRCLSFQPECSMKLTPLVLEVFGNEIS
The assay is described as above.

These are yes or no findings as the source states them, for the method shown. For some of these results: A result given as binding can be weak or reduced; the word gives no strength. For some of these results: Tags and fused reporters may be left off the sequences shown. For some of these results: Binding seen in cells or lysates may run through a third protein.

Consider “endogenous PIM-1 isoform 2 of human HaCaT keratinocytes (from UniProt P11309) (enzyme)”, for which the binding entry in assay [1] was “binds”.

In the case of “full-length human PIM-1 kinase isoform 2, GAL4 activation domain fusion (PIM-1-pAD-Gate2) (enzyme)”, the results for the binding result in assay [2], in assay [3] and in assay [4] were “binds”, “binds” and “no binding”, respectively.
